# Measurements published in PubChem BioAssay AID652054 (National Center for Advancing Translational Sciences (NCATS), 2013).
# Sequences of proteins named here, by UniProt entry; tags and fusion partners are left off.
# UniProt P35462, whole entry, looked up: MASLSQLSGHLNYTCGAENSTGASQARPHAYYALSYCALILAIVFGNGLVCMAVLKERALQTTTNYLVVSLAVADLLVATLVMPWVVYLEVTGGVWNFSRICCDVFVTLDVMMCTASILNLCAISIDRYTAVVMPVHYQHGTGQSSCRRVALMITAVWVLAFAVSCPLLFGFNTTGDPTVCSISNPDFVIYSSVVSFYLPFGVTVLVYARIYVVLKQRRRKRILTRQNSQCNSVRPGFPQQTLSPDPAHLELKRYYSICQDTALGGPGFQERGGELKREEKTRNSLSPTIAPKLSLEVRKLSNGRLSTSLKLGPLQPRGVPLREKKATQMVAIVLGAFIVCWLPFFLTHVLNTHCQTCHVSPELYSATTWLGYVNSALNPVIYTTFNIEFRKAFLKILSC
# Screen size: about 360,000 compounds; about 9,100 (2.5%) were called active. Inconclusive results, whose numbers are uncertain, are shown with a selection of clear calls. Rule as the data show it: active = max response below about -50%; inconclusive = no clear call, values can overlap the other calls; inactive = above that.
# Target: D(3) dopamine receptor (Homo sapiens) (UniProt P35462)
# Assay: qHTS of D3 Dopamine Receptor Antagonist: qHTS
# Conditions: D3R cells, DiscoveRx beta-arrestin luminescence, antagonist mode; hits give low values
# Outline: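 Cells plated overnight at 1500 cells/well, then exposed to library compounds with dopamine controls for 90 minutes at 37 degrees C. DiscoveRx reagent added for 30–60 minutes at room temperature; luminescence read, quantitative HTS format.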
# % is scaled to controls: 0 for no effect and ±100 for the full control effect.
row,Structure (SMILES),"max response, negative = inhibition"
1,O=c1[nH]c(=O)n(Cc2ccccc2Cl)c(O)c1/C=C1/C=CC=N1,inconclusive: -35.3%
2,CCOc1ccccc1-n1c(O)c(C=Nc2ccc(N(CC)CC)cc2)c(=O)[nH]c1=O,inconclusive: -36.9%
3,O=C(CN1CCOCC1)c1cccc2ccccc12,active: -55.2%
4,Cc1cc(/C=C2\C(=O)NC(=O)N(Cc3ccccc3Cl)C2=O)c(C)n1-c1ccc(C(=O)O)cc1,inactive: 3.27%
5,COc1cccc(C(=O)C2CCCN(Cc3ccc4nsnc4c3)C2)c1 (stereo unspecified),inactive: -4.92%
6,O=C(Cc1ccccc1)OCC(=O)c1ccccc1,inconclusive: -31%
7,CCOc1ccc(N=Cc2c(O)n(-c3cc(C)cc(C)c3)c(=O)[nH]c2=O)cc1,inactive: -18.9%
8,Cc1ccccc1N1C(=O)NC(=O)/C(=C/c2ccc(N3CCOCC3)o2)C1=O,inactive: -7.15%
9,C=CC(=O)NCNC(=O)C=C,active: -75.8%
10,c1ccc2[nH]c(CCN3CCCCC3)nc2c1,inconclusive: -30.5%
11,CSc1ncc(/C=C2/C(=O)NC(=O)N(C)C2=O)cn1,inconclusive: -35.4%
12,CC1(C)COC(Nc2cccc(Cl)c2)=N1,active: -54.8%
13,O=[N+]([O-])/C(Cl)=C1\NCCN1Cc1ccc(Cl)nc1,inactive: 8.88%
14,COc1cc2c(c(OC)c1OC)-c1ccc(O)cc1[C@@H](NC(C)=O)CC2,inconclusive: -31.8%
15,CN1C(=O)C(C2(C#N)CCCCC2)C(=O)N(C)C1=O,inconclusive: -44.4%
16,O=C(NCC1=C(c2ccc3ccccc3c2)C[C@@H]2CC[C@H]1N2Cc1ccco1)c1cccs1,inconclusive: -31.1%
17,O=c1cc(C2CCNCC2)[nH][nH]1,inconclusive: -32.8%
18,NC(=O)c1c(Br)n(C2OC(CO)C(O)C2O)c2ncnc(N)c12 (stereo unspecified),inactive: -4.16%
19,Fc1ccc(CNCCc2ccccc2F)cc1,inconclusive: -37.4%

row,Structure (SMILES),"max response, negative = inhibition"
1,COC(=O)C1=C(c2cc3ccccc3s2)C[C@@H]2CC[C@H]1N2C(=O)NCc1ccc(C(F)(F)F)cc1,inconclusive: -41.7%
2,CN1CCN(c2ccc([N+](=O)[O-])c(Sc3ccccn3)c2)CC1,inconclusive: -30.4%
3,CC(=O)OC1C2(CC3N4C(=O)C5(CO)SSC4(CC31O)C(=O)N5C)OC(C)C(C)(C)C2=O (stereo unspecified),active: -98.1%
4,CCC(=NCc1cc(OC)cc(OC)c1)c1c(O)n(C)c(=O)n(C)c1=O,inactive: 57%
5,C=CCC1(CN2CCCCCC2=O)C(=O)NC(=O)NC1=O,inconclusive: -41.5%
6,CCOC(=O)C(O)(c1ccc(NC(=O)Oc2ccccc2)cc1)C(F)(F)F (stereo unspecified),inconclusive: -43.3%
7,COC(=O)C1=C(c2ccc(C(C)=O)cc2)C[C@@H]2CC[C@H]1N2C(=O)N1CCCCC1,inconclusive: -31.5%
8,COC(=O)C1=C(c2cc3ccccc3o2)C[C@@H]2CC[C@H]1N2C,inactive: -20.2%
9,CCC1(OC(=O)CN)C(=O)OCc2c1cc1n(c2=O)Cc2cc3ccccc3nc2-1 (stereo unspecified),inconclusive: -32.3%
10,COC(=O)C1=C(c2ccc(Cl)c(C(F)(F)F)c2)C[C@@H]2CC[C@H]1N2C(=O)NCc1cc(C)oc1C(F)(F)F,inconclusive: -34.4%
11,OC(CN1CCC(c2c[nH]c3ccccc23)CC1)C(F)(F)F (stereo unspecified),active: -62.7%
12,CN1CCc2cc(O)cc3c2[C@H]1Cc1ccc(O)c(O)c1-3,active: -84%
13,Cc1ccsc1C(=O)C1CCCN(Cc2cccc(-n3cccn3)c2)C1 (stereo unspecified),active: -79.9%
14,Cc1ccccc1NC(=NCCCN1CC1)Nc1ccccc1C,inactive: 23.4%
15,O=[N+]([O-])c1ccc(CN2CC=C(c3ccccc3)CC2)cc1,active: -54.8%
16,COc1cc(/C=C2\C[C@H]3[C@@H]4CC=C5C[C@@H](N6CCCC6)CC[C@]5(C)[C@H]4CC[C@]3(C)[C@H]2O)cc(OC)c1OC,active: -69.6%
17,CCN(CC)CCCN=Cc1c(O)n(-c2cccc(C)c2C)c(=O)[nH]c1=O,inconclusive: -38.7%
18,ClCCN1CCN(c2ccnc3cc(Cl)ccc23)CC1,inconclusive: -31%
19,C=C(C=O)C[C@@H]1C[C@H](O)C2OC3C[C@]4(C)OC5/C=C\CC6OC7C(CC=CCC6OC5CCCC4OC3CC2O1)OC1CC2OC3CC(=O)OC3C[C@@H](C)C[C@@]2(C)OC1C[C@@H]7C (stereo partly specified),inconclusive: -45%

row,Structure (SMILES),"max response, negative = inhibition"
1,COc1c(C)cc(C(=O)C2CCCN(Cc3cccc(C)n3)C2)cc1C (stereo unspecified),inactive: 14.4%
2,CN(C)CC(C(=O)Cc1ccccc1)c1ccccc1 (stereo unspecified),active: -62.5%
3,Clc1ccccc1CN1CCN(c2ccccc2Cl)CC1,active: -83.1%
4,CCOC(=O)C1(CCc2ccccc2)CCN(Cc2ccc3c(c2)OCCO3)CC1,inconclusive: -40.3%
5,CCCCn1nnnc1C(c1cccs1)N1CCC2(CC1)C(=O)NCN2c1ccccc1 (stereo unspecified),active: -52.2%
6,COC(=O)C1=C(c2ccc(-c3ccccc3)c(F)c2)C[C@@H]2CC[C@H]1N2C(=O)NCc1cccc2ccccc12,inconclusive: -38.1%
7,COc1ccc(CC(=O)N2CCN(C)CC2)cc1,inconclusive: -49.1%
8,Cc1nc2cc(OC(=O)N(C)Cc3cccc(-c4ccncc4)c3)ccc2s1,inactive: 128%
9,COC(=O)C1=C(c2ccccc2OCc2ccccc2)C[C@@H]2CC[C@H]1N2C(=O)NCCOc1ccc(OC)cc1,inconclusive: -36.4%
10,CSc1ccc(CN2CCN(c3ccccc3C)CC2)cc1,active: -73.4%
11,COc1ccc(CCNCc2cccc(C(F)(F)F)c2)cc1OC,inconclusive: -37.3%
12,CCCN(CCC)C1Cc2cc(OC)c(OC)cc2C1,active: -103%
13,CCOC(=O)C1CCN(Cc2ccc(Cl)nc2)CC1,inconclusive: -37%
14,c1ccc2c(c1)Nc1ccccc1S2,inactive: 9.4%
15,O=C(COc1ccccc1)N1CCN(C2CCCC2)CC1,inconclusive: -39.7%
16,CCOC(=O)C1(c2ccccc2)CCN(CCC(=O)Nc2cccc(Br)c2)CC1,active: -87.2%
17,c1ccc(CCNCc2cccs2)cc1,inconclusive: -34.9%
18,CCOC(=O)[C@]12Cc3ccccc3[C@H]1N(CCC(=O)OC)C(=O)c1cc(OC)ccc12,inconclusive: -32.8%

# A portion of the results above:
row,Structure (SMILES),"max response, negative = inhibition"
1,COc1c(C)cc(C(=O)C2CCCN(Cc3cccc(C)n3)C2)cc1C (stereo unspecified),inactive: 14.4%
2,CN(C)CC(C(=O)Cc1ccccc1)c1ccccc1 (stereo unspecified),active: -62.5%
